Test results from the supplement of paper PMC8960247.
Structures can show the parent of a compound that is named as a salt. Single values of this set are uncertain.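 Immortalized human renal angiomyolipoma cells with an empty vector keep TSC2 lost. A luminescent ATP assay measured viability, normalized per plate to vehicle-treated wells, in low-serum medium where TSC2-rescued cells fail to grow.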

System: 621-102 (TSC2-deficient)
Assay: relative viability vs DMSO (fraction); higher = less cytotoxic
Details: serum: 0.1% FBS, 72 h

| SMILES | relative viability (0.0128 nM) | relative viability (0.064 nM) | relative viability (0.32 nM) | relative viability (1.6 nM) | relative viability (8 nM) | relative viability (40 nM) | relative viability (200 nM) | relative viability (1000 nM) | relative viability (5000 nM) |
| --- | --- | --- | --- | --- | --- | --- | --- | --- | --- |
| C[C@]12CC[C@H]3[C@@H](CC[C@@]45O[C@@H]4C(O)=C(C#N)C[C@]35C)[C@@H]1CC[C@@H]2O [Trilostane] | 0.857 | 0.864 | 0.849 | 0.886 | 0.874 | 0.812 | 0.848 | 0.81 | 0.736 |
| FC(F)c1nc2ccccc2n1-c1nc(N2CCOCC2)nc(N2CCOCC2)n1 [ZSTK474] | 0.875 | 0.96 | 1.05 | 1.09 | 1.04 | 0.91 | 0.643 | 0.504 | 0.446 |
| N#CCNC(=O)c1ccc(-c2ccnc(Nc3ccc(N4CCOCC4)cc3)n2)cc1 [Cyt387] | 0.782 | 0.773 | 0.743 | 0.782 | 0.678 | 0.587 | 0.556 | 0.455 | 0.0659 |
| Cc1ccc(O)c([C@H](CCN(C(C)C)C(C)C)c2ccccc2)c1 [Tolterodine tartrate] | 0.296 | 0.305 | 0.707 | 0.637 | 0.608 | 0.447 | 0.672 | 0.0976 | 0.305 |
| CC(=O)O[C@H]1C(=O)[C@@]2(C)[C@H]([C@H](OC(=O)c3ccccc3)[C@]3(O)C[C@H](OC(=O)[C@H](O)[C@@H](NC(=O)c4ccccc4)c4ccccc4)C(C)=C1C3(C)C)[C@]1(OC(C)=O)CO[C@@H]1C[C@@H]2O [Paclitaxel] | 0.96 | 0.959 | 0.878 | 0.626 | 0.0659 | 0.0335 | 0.0342 | 0.0411 | 0.0376 |
| CC(C)c1nc(CN(C)C(=O)N[C@H](C(=O)N[C@@H](Cc2ccccc2)C[C@H](O)[C@H](Cc2ccccc2)NC(=O)OCc2cncs2)C(C)C)cs1 [Ritonavir] | 0.701 | 0.779 | 0.611 | 0.674 | 0.619 | 0.555 | 0.562 | 0.561 | 0.63 |
| CCN1CCN(Cc2ccc(-c3cc4c(N[C@H](C)c5ccccc5)ncnc4[nH]3)cc2)CC1 [AEE788] | 0.257 | 1.07 | 1.34 | 1.47 | 1.13 | 1.15 | 1.01 | 0.0269 | 0.019 |
| C#Cc1cccc(Nc2ncnc3cc(OC)c(OCCCCCCC(=O)NO)cc23)c1 [CUDC-101] | 0.88 | 0.871 | 0.938 | 1 | 0.653 | 0.722 | 0.159 | 0.00665 | 0.00752 |
| CC(C)CC(=O)Nc1n[nH]c2c1CN(C(=O)C1CCN(C)CC1)C2(C)C | 0.813 | 0.742 | 0.817 | 0.805 | 0.764 | 0.716 | 0.443 | 0.0793 | 0.012 |
| CCOc1ccn(-c2ccc(F)cc2)c(=O)c1C(=O)Nc1ccc(Oc2ccnc(N)c2Cl)c(F)c1 | 1 | 0.995 | 0.964 | 0.918 | 0.65 | 0.436 | 0.783 | 0.937 | 0.18 |
| CS(=O)(=O)CCNCc1ccc(-c2ccc3ncnc(Nc4ccc(OCc5cccc(F)c5)c(Cl)c4)c3c2)o1 | 0.831 | 0.729 | 0.362 | 0.881 | 0.753 | 0.166 | 0.749 | 0.103 | 0.0205 |
| CCC[C@H](Nc1nc(-c2ccc(NC(=O)NCC)c(OC)c2)ncc1C)c1cccnc1 [CYT997] | 0.888 | 0.835 | 0.849 | 0.798 | 0.809 | 0.472 | 0.0393 | 0.0172 | 0.0166 |
| O=C(Nc1ccc(OC(F)(F)F)cc1)c1sccc1NCc1ccnc2ccccc12 [OSI-930] | 0.844 | 0.655 | 0.758 | 0.872 | 0.791 | 0.845 | 0.917 | 0.575 | 0.0159 |
| CN1CCN(c2c(F)cc3c(=O)c(C(=O)O)cn(CCF)c3c2F)CC1 [Fleroxacin] | 0.958 | 0.358 | 0.502 | 0.841 | 0.292 | 0.132 | 0.166 | 0.189 | 0.562 |
| CN(C)C(=O)Oc1cccc([N+](C)(C)C)c1 [Neostigmine bromide] | 0.779 | 0.69 | 0.688 | 0.64 | 0.574 | 0.587 | 0.532 | 0.359 | 0.265 |
| Cn1cc(/C=C/C(=O)c2cccc(F)c2)cc1/C=C/C(=O)NO [MC1568] | 0.833 | 0.742 | 0.824 | 0.849 | 0.755 | 0.768 | 0.722 | 0.695 | 0.579 |
| O=C(Nc1cccc(Cl)c1)Nc1ncc(CCNc2ncnc3ccsc23)s1 [SNS-314 Mesylate] | 0.825 | 0.833 | 0.864 | 0.841 | 0.0374 | 0.0165 | 0.0167 | 0.0449 | 0.0625 |
| O=C(/C=C/c1ccc(CN(CCO)CCc2c[nH]c3ccccc23)cc1)NO [LAQ824] | 0.795 | 0.817 | 0.771 | 0.825 | 0.844 | 0.367 | 0.0481 | 0.0127 | 0.0133 |
| CN1CCN(c2ccc([N+](=O)[O-])c3no[n+]([O-])c23)CC1 | 0.816 | 0.877 | 0.879 | 0.877 | 0.809 | 0.712 | 0.732 | 0.175 | 0.598 |
| Cn1c(=O)c(F)c(Nc2ccc(I)cc2F)c2c(=O)n(C[C@@H](O)CO)cnc21 [TAK-733] | 0.965 | 0.912 | 0.998 | 0.926 | 0.926 | 0.847 | 0.666 | 0.466 | 0.295 |

Part of the list above, with bars between the fields:
SMILES | relative viability (0.0128 nM) | relative viability (0.064 nM) | relative viability (0.32 nM) | relative viability (1.6 nM) | relative viability (8 nM) | relative viability (40 nM) | relative viability (200 nM) | relative viability (1000 nM) | relative viability (5000 nM)
C#Cc1cccc(Nc2ncnc3cc(OC)c(OCCCCCCC(=O)NO)cc23)c1 [CUDC-101] | 0.88 | 0.871 | 0.938 | 1 | 0.653 | 0.722 | 0.159 | 0.00665 | 0.00752
CC(C)CC(=O)Nc1n[nH]c2c1CN(C(=O)C1CCN(C)CC1)C2(C)C | 0.813 | 0.742 | 0.817 | 0.805 | 0.764 | 0.716 | 0.443 | 0.0793 | 0.012
